According to PubChem BioAssay AID540275 (National Center for Advancing Translational Sciences (NCATS), 2011):
Hit rate of the full screen: of about 320,000 compounds, about 620 (0.19%) were called active. The inconclusive results got no clear call from the source; some entries with a clear call stand among them for comparison. Rule as the data show it: active = activation above about 80%; inconclusive = between about 30% and that limit; inactive = weaker than that.

Protein sequences, listed by entry. Tags and fused reporters are not part of them.
UniProt Q8NER1, whole entry, looked up: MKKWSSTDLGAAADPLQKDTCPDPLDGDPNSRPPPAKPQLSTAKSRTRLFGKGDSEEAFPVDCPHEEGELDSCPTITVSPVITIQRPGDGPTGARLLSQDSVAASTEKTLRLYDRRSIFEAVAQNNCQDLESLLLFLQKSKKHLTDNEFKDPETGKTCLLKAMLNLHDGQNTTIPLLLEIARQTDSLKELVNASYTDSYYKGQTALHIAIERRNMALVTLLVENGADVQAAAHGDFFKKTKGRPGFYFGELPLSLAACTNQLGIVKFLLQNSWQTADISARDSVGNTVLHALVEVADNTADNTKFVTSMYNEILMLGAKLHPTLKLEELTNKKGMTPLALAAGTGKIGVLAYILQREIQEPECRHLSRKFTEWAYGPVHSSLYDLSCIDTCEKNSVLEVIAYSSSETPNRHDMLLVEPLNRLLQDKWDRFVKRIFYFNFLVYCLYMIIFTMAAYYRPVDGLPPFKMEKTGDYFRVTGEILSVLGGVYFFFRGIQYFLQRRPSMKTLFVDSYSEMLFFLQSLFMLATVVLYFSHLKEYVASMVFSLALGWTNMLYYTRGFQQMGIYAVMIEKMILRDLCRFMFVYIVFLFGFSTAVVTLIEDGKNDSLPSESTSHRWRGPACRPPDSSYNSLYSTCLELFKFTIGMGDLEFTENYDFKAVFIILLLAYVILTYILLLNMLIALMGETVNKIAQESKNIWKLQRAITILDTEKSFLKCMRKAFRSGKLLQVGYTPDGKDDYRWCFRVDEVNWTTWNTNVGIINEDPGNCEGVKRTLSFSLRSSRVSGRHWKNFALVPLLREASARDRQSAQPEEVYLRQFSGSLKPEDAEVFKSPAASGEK

biological target: Transient receptor potential cation channel subfamily V member 1 (Homo sapiens) (UniProt Q8NER1); test: HTS Assay for Compounds that Act as Agonists of the Vanilloid Receptor 1; conditions: TRPV1-expressing cells, Fluo-8 calcium influx, agonist mode; at 8.33 µM, active compounds read high; also: 0% is about no effect
Method in brief: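 Fluo-8 calcium influx in TRPV1-expressing cells, kinetic read (ex 480/em 520 nm). Compound added and read 3 min for agonist activity, followed by capsaicin at EC20 final and 2 min further read for enhancement.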

Structure (SMILES) | activation
C=CCn1c(=O)c2c3c(sc2n2c(Nc4ccccc4)nnc12)CCCC3 | inconclusive: 53.2%
Cc1ccc(C(=O)Nc2cc3c(cc2Cl)OCCCO3)cc1 | inconclusive: 49.4%
Cc1cc(C)n(CCN(C)c2nc3nonc3nc2N2CCCCC2)n1 | inactive: 0.983%
O=C(Nc1ccc(Cl)cn1)c1ccc(Oc2ccccc2)cc1 | inconclusive: 61.3%
CC1C/C(=N\NC(=O)c2ccc([N+](=O)[O-])cc2)CC(C)(C)C1 (stereo not given) | inconclusive: 37.6%
C/C(=N\Nc1ncc(Cl)cc1Cl)c1ccccn1 | inactive: 2.56%
CC1(c2nnc(-c3ccc(F)cc3)o2)CC(c2c(Cl)cccc2Cl)=NO1 (stereo not given) | inconclusive: 42.3%
COc1ccc(C(=O)NC2CC2)cc1OC1CCN(Cc2cnn(C)c2C)CC1 | inactive: -0.628%
Cc1ccccc1OCCC(=O)Nc1ccc(F)c(Cl)c1 | inconclusive: 33.2%
Cc1ccc(S(=O)(=O)N(CC(=O)NCCSC2CCCCC2)c2ccccc2F)cc1 | inconclusive: 35.4%
CCc1ccc(CNC(=O)Cc2ccc(NC(=O)C3=C(C)OCCS3)cc2)cc1 | inconclusive: 42.2%
Cc1ccc(N(C(=O)c2snc(C(N)=O)c2N)C(CC(C)C)C(=O)NC2CCCC2)cc1 (stereo not given) | inconclusive: 78.7%
O=C(Nc1ccncc1)c1c(F)c(F)c(F)c(F)c1F | inconclusive: 69.4%
Cc1cc(C(=O)Nc2ccccc2C)n(-c2ccccc2)n1 | inactive: -5.14%
CCC(=O)c1cc(F)c(N2CCN(C(=O)c3ccco3)CC2)cc1C | inconclusive: 33.6%
O=C(NCC1COc2ccccc2O1)c1ccc(Cl)cc1 (stereo not given) | inconclusive: 52.9%
CC(=O)Nc1ccc(OCC(O)Cn2ccnc2)cc1 (stereo not given) | inconclusive: 36.1%
COc1ccc(NS(=O)(=O)c2cc(NC(=O)c3cnc(C)cn3)ccc2N2CCCC2)cc1 | inconclusive: 41.2%
CCOc1ccc(C2Nc3ccc4ccccc4c3-c3c2c(=O)oc2ccccc32)cc1 (stereo not given) | inconclusive: 51.5%
CCCn1c(NC(=O)c2ccc(F)cc2)nc2ccccc21 | inactive: 8.06%
Cc1ccc(C(=O)Nc2cccc3ccccc23)cc1 | inconclusive: 58.1%
CCCc1ccc(OCc2ccc(C(=O)NN)o2)c(OC)c1 | inconclusive: 43.8%
O=C(CSc1nnnn1-c1ccc2c(c1)OCCO2)OC1CCCCC1 | inconclusive: 46.6%

5 of these compounds, set out differently:
Structure (SMILES),activation
CCC(=O)c1cc(F)c(N2CCN(C(=O)c3ccco3)CC2)cc1C,inconclusive: 33.6%
O=C(NCC1COc2ccccc2O1)c1ccc(Cl)cc1 (stereo not given),inconclusive: 52.9%
CC(=O)Nc1ccc(OCC(O)Cn2ccnc2)cc1 (stereo not given),inconclusive: 36.1%
COc1ccc(NS(=O)(=O)c2cc(NC(=O)c3cnc(C)cn3)ccc2N2CCCC2)cc1,inconclusive: 41.2%
CCOc1ccc(C2Nc3ccc4ccccc4c3-c3c2c(=O)oc2ccccc32)cc1 (stereo not given),inconclusive: 51.5%

More records:

Structure (SMILES) | activation
O=C1CCC(C(=O)N2CCSCC2)CN1Cc1cccc(C(F)(F)F)c1 (stereo not given) | inconclusive: 64.4%
Cc1ccc(C(C)NC(=S)NC2CCCCC2)c(C)c1 (stereo not given) | inconclusive: 44.2%
CC1(C)Cc2c(sc(NC(=O)c3ccc4ncsc4c3)c2C(N)=O)C(C)(C)N1 | inactive: 2.13%
CC(=O)c1ccc(NC(=O)c2ccc(C)c(S(=O)(=O)N3CCOCC3)c2)cc1 | inconclusive: 50.3%
S=C(Nc1ccccc1Cl)NC1CCC(NC(=S)Nc2ccccc2Cl)CC1 (stereo not given) | inactive: -1.06%
Cc1ccc(-c2csc3nc(SCC(=O)N(C)C)n(Cc4ccccc4)c(=O)c23)cc1 | inconclusive: 55.6%
NC(=O)c1ccsc1NC(=O)COC(=O)c1nc(Cl)ccc1Cl | inactive: 1.7%
Cc1cccc(Nc2ccccc2C(=O)OCC(=O)N2CCOCC2)c1C | inconclusive: 39.5%
O=C(N/N=C/c1cc2c(cc1Cl)OCO2)c1ccc2c(c1)OCCO2 | inconclusive: 60%
COc1cccc(-c2cnc(OC(C)(C)C)nc2OC(C)(C)C)c1 | inconclusive: 53.2%
CCCS(=O)(=O)N1CCCC(C(=O)NCCCN(C)c2ccccc2)C1 (stereo not given) | inconclusive: 38.8%
CCOc1ccc2c(c1)s/c(=N\S(=O)(=O)c1ccc(OC)cc1)n2C(F)F | inconclusive: 39.1%
CCCCCCCOC(=O)C[N+](C)(C)CCOC1CC2CCC1(C)C2(C)C (stereo not given) | inconclusive: 49.1%
CCCCN(CCCC)c1nc(OC)nc(-n2nnc(C(C)=O)c2C)n1 | inconclusive: 38.1%
O=C(NC1CC2CCCC(C1)N2S(=O)(=O)c1ccccc1)c1ccccc1 (stereo not given) | inconclusive: 47.6%
CCNC(=S)N(CCc1c(C)[nH]c2ccc(F)cc12)Cc1cccnc1 | inactive: -8.39%
O=Cc1cn(-c2ccccc2)nc1-c1ccc(F)cc1 | inconclusive: 41.9%
COc1ccccc1C(=O)Nc1ccc(NC(=O)c2ccco2)cn1 | inactive: 3.77%
O=C(NCc1cccnc1)c1cc(Sc2ccc(F)cc2F)nc2ccccc12 | inconclusive: 45.5%
COc1ccc(N(C(=O)c2snc(C(N)=O)c2N)C(C(=O)NCc2ccc(F)cc2)c2ccc(C)o2)c(OC)c1 (stereo not given) | inconclusive: 34.6%
Cc1ccc(C(=O)C(OC(=O)c2c(C)cc(=O)oc2C)c2ccccc2)cc1 (stereo not given) | inconclusive: 33.7%
CC(C)Cn1c(SCC(=O)N2CCCCC2)nc2ccccc2c1=O | inconclusive: 69%
Cc1ccc(C)c(C(=O)COc2ccc(C)nc2[N+](=O)[O-])c1 | inactive: -0.768%

Structure (SMILES) | activation
Cc1ccc(C)c(N2CCN(C(=O)Nc3ccc4c(c3)N(C)C(=O)CS4)CC2)c1 | inactive: -0.801%
O=S(=O)(Nc1cccc(-c2ccc(N3CCCCCC3)nn2)c1)c1ccc(F)cc1 | inconclusive: 36.9%
Cc1ccc(NC(=O)c2c3c(nc4ccccc24)CCC3)cc1 | inconclusive: 33.4%
Cc1ccc(NC(=O)C2CCN(S(=O)(=O)c3ccc(F)cc3)CC2)cc1 | inconclusive: 76.3%
O=C(NCCCn1ccnc1)c1ccc(NS(=O)(=O)c2ccc(Cl)c(Cl)c2)cc1 | inactive: -5.96%
CCCCNC(=O)c1onc(CCl)c1C(=O)OC | inactive: -4.94%
Cc1cccc(CNS(=O)(=O)c2csc(C(N)=O)c2)c1 | inactive: -5.37%
O=C(/C=C/c1cccs1)N1CCN(Cc2ccc3c(c2)OCO3)CC1 | inconclusive: 30.1%
COc1ccc(-c2[nH]ncc2CNC(C)c2cn(C)nc2C)c(F)c1 (stereo not given) | inactive: -0.463%
COC(=O)c1cc(NC(=O)C2COc3ccccc3O2)ccc1Cl (stereo not given) | inconclusive: 48.1%
CCCN1C=CC(=C/C=C(\C#N)C(=O)OCC)C=C1 | inconclusive: 34.3%
C=CCn1c(C)c(C(=O)OCC)c2cc(O)c3ccccc3c21 | inconclusive: 59.8%
O=C(Nc1cccnc1)c1ccc(COc2cc(Cl)ccc2Cl)o1 | inconclusive: 31.8%
COc1ccccc1Nc1nc(-c2cccc([N+](=O)[O-])c2)cs1 | inactive: -1.38%
CCOC(=O)/C(N=Nc1ccc2c(c1)OCO2)=C(\C)O | inconclusive: 40.6%
COc1cccc(C2CC(=O)Nc3cc(OC)c(OC)cc32)c1 (stereo not given) | inactive: -0.134%
O=C/C(=C\Nc1ccc(Cl)cn1)c1nc2ccccc2o1 | inconclusive: 41%
COC(=O)CCCNC(=O)OCc1ccc([N+](=O)[O-])cc1 | inactive: -1.04%
CSC(=NCc1ccco1)NC#N | inactive: 3.39%
O=C(C1=C[C@H](C2CCCCC2)C[C@H](OCc2ccc(CO)cc2)O1)N1CCN(Cc2ccccc2)CC1 | inconclusive: 31.6%
O=C(NNC(=O)c1cc2cc(Br)ccc2oc1=O)c1ccc(O)cc1O | inactive: 9.53%
CCOC(=O)C1CCN(S(=O)(=O)c2ccc(NC(=O)c3ccco3)cc2)CC1 | inconclusive: 59.7%
Cc1ccc(NC(=O)Nc2cccnc2)cc1 | inconclusive: 71.7%

Structure (SMILES) | activation
CC1(C)CC(=O)C2=C(C1)Nc1cc(Cl)ccc1S2 | inconclusive: 49.8%
CCCn1c(COc2ccccc2OC)nc2ccccc21 | inconclusive: 44.3%
O=C(Cc1ccccc1)N1CCN=C1SCc1cccc([N+](=O)[O-])c1 | inactive: 4.36%
O=C(COc1ccccc1)Nc1ccc(S(=O)(=O)N2CCCCCC2)cc1 | inconclusive: 31.4%
COc1ccc(Br)cc1/C=C/C(=O)Nc1ccc(C)cc1 | inconclusive: 47.5%
Cc1ccc(NC(=O)c2cnccn2)cc1 | inconclusive: 31.2%
O=C1C=C(c2ccccc2C(F)(F)F)C[C@@H](c2ccc3c(c2)OCO3)C1 | inconclusive: 34.4%
C=CCNC(=S)N/N=C(\C)c1cc(OC)c(OC)c(OC)c1 | inactive: 0.267%
CC(Cc1ccccc1)NC(=O)/C=C/c1ccc([N+](=O)[O-])cc1 (stereo not given) | inconclusive: 40.8%
COc1ccc(-c2cc(=O)oc3c(C)c(OC(C)C(C)=O)ccc23)cc1 (stereo not given) | inconclusive: 42.7%
CCN(CC)CCN(C(=O)c1ccc(C(=O)c2ccccc2)cc1)c1nc2cc3c(cc2s1)OCO3 | inactive: -0.143%
CC(C)(C)C(=O)NC(=S)NNC(=O)c1sc2ccccc2c1Cl | inconclusive: 63.7%
CCOc1ccc(S(=O)(=O)N(C)c2ccc(OCC(=O)N3CCOCC3)cc2)cc1 | inconclusive: 33.3%
CC(=O)Cn1nnc2sc3c(c2c1=O)CCC(C(C)(C)C)C3 (stereo not given) | inconclusive: 46.8%
Cc1ccc(Cn2c(SCCN3CCCCC3)nc3c2c(=O)[nH]c(=O)n3C)cc1 | inactive: -3.31%
Cc1cccc(OCCCn2c(=O)oc3ccccc32)c1 | inconclusive: 53.5%
CC(C)(C)c1ccc(C(=O)NCCOc2ccccc2)cc1 | inconclusive: 58.5%
CC(C)CN1CCC(=O)N(CCSc2ccc(Br)cc2)CC1 | inconclusive: 71.7%
Cc1ccc(/C=N/NC(=O)NC23CC4CC(CC(C4)C2)C3)o1 | inconclusive: 31.6%
O=C(NN=C1CCN(Cc2ccccc2)CC1)c1ccccc1 | inactive: 1.3%
COc1ccc(NC(=O)c2nc[nH]c2C(=O)N[C@@H](CC(C)C)C(=O)OC(C)(C)C)cc1 | inconclusive: 42.8%
